Patent USRE38425E1, “Semicarbazones having CNS activity and pharmaceutical preparations containing same” (University of Saskatchewan Technologies, Inc., priority 1995, dated 2004)
“And” between values parts separate entries of the source, which are not always exact repeats. Equal entries are not always repeated. Where two headings read alike, the source gives them in different places.

How the values were obtained:
mice [1] = test: MES screen after intraperitoneal injection in mice; type: in vivo; conditions: for MES screen slope: slope belonging to the MES ED50
rats [2] = test: neurotoxicity screen after oral administration to rats; conditions: slope belonging to the TD50
mice [3] = conditions: intraperitoneal injection in mice; slope belonging to the TD50
rats [4] = test: MES screen after oral administration to rats; conditions: for MES screen slope: slope belonging to the MES ED50
mice [5] = conditions: intraperitoneal injection in mice; for PI acPTZ (protection index TD50/ED50): TD50 / scPTZ ED50; for acPTZ screen slope: slope belonging to the scPTZ ED50
rats [6] = conditions: oral administration to rats; data taken from reference 1; cited from earlier work
rats [7] = test: MES screen after intraperitoneal injection into rats; type: in vivo

SMILES	MES screen slope (mice [1])	neurotoxicity screen slope (mice [3])	MES screen slope (rats [4])	PI MES (protection index TD50/ED50) (mice [1])	PI (protection index TD50/ED50) (rats [4]; TD50 / MES ED50)	further results
NC(=O)N1c2ccccc2C=Cc2ccccc21 [Carbamazepine, reference compound]	20.8	7.98	3.84			neurotoxicity screen slope (rats [2]): 11.4
CC(C)(C)c1ccc(Oc2ccc(C=NNC(N)=O)cc2)cc1 [Compound 5s]	13.063	6.313	4.437	11.934	>297.24	PI acPTZ (protection index TD50/ED50) (mice [5]): >0.076
O=C1NC(=O)C(c2ccccc2)(c2ccccc2)N1 [Phenytoin, reference compound]	11.24 and 12.4	14.39 and 10.2	15.1	6.52 and 6.60	>21.6	
NC(=O)NN=Cc1ccc(Oc2ccc(F)cc2)cc1 [Compound 4b, 4-(4′-fluorophenoxy)benzaldehyde semicarbazone]	8.28	3.69	3.17	8.40	>315	PI (protection index TD50/ED50) (rats [4]; TD50 / MES ED50, listed as 4-(4′-fluorophenoxy) benzaldehyde semicarbazone): greater than 315; MES screen slope (rats [6]): 3.17; PI (protection index TD50/ED50) (rats [6]): >315; slope (SE) in the MES screen (rats [7]; 4 h): 2.65(0.76); PI (rats [7]; TD50/ED50): 33.8
CCc1ccc(Oc2ccc(C=NNC(N)=O)cc2)cc1 [Compound 5p]			1.98			
NC(=O)NN=Cc1ccc(Sc2ccc(Cl)cc2)cc1 [Compound 16b]	23.21	5.90		3.28		
Cc1ccc(Oc2ccc(C=NNC(N)=O)cc2)cc1 [Compound 4f]	5.59	4.29	4.121	13.91	>145.57	PI acPTZ (protection index TD50/ED50) (mice [5]): 2.30; acPTZ screen slope (mice [5]): 1.87
NC(=O)NN=Cc1ccc(Sc2ccc(Br)cc2)cc1 [Compound 16c]	5.92	6.92		5.03		
Cc1ccccc1Oc1ccc(C=NNC(N)=O)cc1 [Compound 5n]			3.65		>88	
CC(C)(C)CC(C)(C)c1ccc(Oc2ccc(C=NNC(N)=O)cc2)cc1 [Compound 5t]	10.881	3.924		11.048		PI acPTZ (protection index TD50/ED50) (mice [5]): >0.623
CC(=NNC(N)=O)c1ccc(Oc2ccc(F)cc2)cc1 [Compound 13b]	22.69	45.21	5.74	5.22	32.3	neurotoxicity screen slope (rats [2]): 4.82
CCC(=NNC(N)=O)c1ccc(Oc2ccc(Br)cc2)cc1 [Compound 13h]			4.206			
CCCC(CCC)C(=O)O [Valproic acid, reference compound]	7.31	12.3	8.13			PI acPTZ (protection index TD50/ED50) (mice [5]): 2.31; acPTZ screen slope (mice [5]): 8.51; neurotoxicity screen slope (rats [2]): 6.57
NC(=O)NN=Cc1ccc(Sc2ccc(F)cc2)cc1 [Compound 16a]	6.372	24.001	3.92	7.112	36.8	PI acPTZ (protection index TD50/ED50) (mice [5]): <0.733; neurotoxicity screen slope (rats [2]): 2.49
NC(=O)NN=Cc1ccc(Sc2ccccc2)cc1 [Compound 15a]	4.50	4.59	6.02	11.59	>115.6	
CC(=NNC(N)=O)c1ccc(Oc2ccc(Br)cc2)cc1 [Compound 13d]			3.600		>328.28	
NC(=O)NN=Cc1ccc(OS(=O)(=O)c2ccccc2)cc1 [Compound 15f]	9.52	17.38		4.47		
CCCCc1ccc(Oc2ccc(C=NNC(N)=O)cc2)cc1 [Compound 5r]	6.945	6.467	3.575	9.825	>100.16	PI acPTZ (protection index TD50/ED50) (mice [5]): 1.510; acPTZ screen slope (mice [5]): 11.442
CC(=NNC(N)=O)c1ccc(Oc2ccccc2)cc1 [Compound 13a]	6.21	10.51	3.844	8.09		PI acPTZ (protection index TD50/ED50) (mice [5]): 1.70; acPTZ screen slope (mice [5]): 1.54
CC(=NNC(N)=O)c1ccccc1Oc1ccc(F)cc1 [Compound 14b]			2.287			
CC(=NNC(N)=O)c1ccc(Oc2ccc(Cl)cc2)cc1 [Compound 13c]			5.774		<170.73	
CCC(=NNC(N)=O)c1ccc(Oc2ccc(F)cc2)cc1 [Compound 13f]	11.64	6.78	3.67	6.45		PI acPTZ (protection index TD50/ED50) (mice [5]): 2.75; acPTZ screen slope (mice [5]): 3.34
CCC(=NNC(N)=O)c1ccc(Oc2ccccc2)cc1 [Compound 13e]			3.14			
CCC(=NNC(N)=O)c1ccc(Oc2ccc(Cl)cc2)cc1 [Compound 13g]	20.278		2.035	<9.017	>172.81	
Cc1cccc(Oc2ccc(C=NNC(N)=O)cc2)c1 [Compound 5o]			7.114		>162.47	
CCCCOc1ccc(Oc2ccc(C=NNC(N)=O)cc2)cc1 [Compound 5u]			1.327			
CCCc1ccc(Oc2ccc(C=NNC(N)=O)cc2)cc1 [Compound 5q]			3.213		>190.02	
